Results from patent US12037644B2, “Use of FGFR mutant gene panels in identifying cancer patients that will be responsive to treatment with an FGFR inhibitor” (Janssen Pharmaceutica NV, priority 2014, dated 2024).

Legend:
[1] = system: RK3E-Transgene TACC3-V3 (FGFR fusion stably transfected RK3E cells); test: Drug response testing (Cell Titer-Glo proliferation), RK3E FGFR3:TACC3 v3; settings: Rattus norvegicus, 72 h, read-out: Stimulated Proliferation (IC50)
RK3E-Transgene KRAS = test: Drug response testing (Cell Titer-Glo proliferation), RK3E KRAS; settings: Rattus norvegicus, 72 h, read-out: Stimulated Proliferation (IC50)
[2] = system: FGFR fusion stably transfected RK3E cells; test: Drug response testing for FGFR-fusion overexpressing cell lines (overall statement); settings: empty vector control did not show sensitivity
[3] = system: RK3E-Transgene TACC3-V1 (FGFR fusion stably transfected RK3E cells); test: Drug response testing (Cell Titer-Glo proliferation), RK3E FGFR3:TACC3 v1; settings: Rattus norvegicus, 72 h, read-out: Stimulated Proliferation (IC50)
[4] = system: RK3E-Transgene Vector (empty vector control RK3E cells); test: Drug response testing (Cell Titer-Glo proliferation), RK3E empty vector control; settings: Rattus norvegicus, 72 h, read-out: Stimulated Proliferation (IC50)

## COc1cc(OC)cc(N(CCNC(C)C)c2ccc3ncc(-c4cnn(C)c4)nc3c2)c1 [JNJ-42756493, N-(3,5-dimethoxyphenyl)-N′-(1-methylethyl)-N-[3-(1-methyl-1H-pyrazol-4-yl)quinoxalin-6-yl]ethane-1,2-diamine]
[1]
  IC50: 0.271 nM
RK3E-Transgene KRAS
  IC50: 1620 nM
[2]
  sensitivity of cells harboring the FGFR fusions to the FGFR inhibitor in vitro: showed sensitivity
[3]
  IC50: 0.291 nM
[4]
  IC50: 7010 nM
